{"source": "the supplement of paper PMC8728848", "assay_in_all_cases": "glycan array binding signal (z-score within array); higher = stronger binding", "conditions_in_all_cases": "glycan notation: IUPAC condensed, linker removed", "key": {"[1]": {"target": "GlcNAc(b1-3)Gal(b1-4)GlcNAc(b1-3)Gal(b1-4)GlcNAc(b1-3)Gal(b1-4)GlcNAc(b1-3)Gal(b1-4)GlcNAc(b1-2)[GlcNAc(b1-3)Gal(b1-4)GlcNAc(b1-3)Gal(b1-4)GlcNAc(b1-3)Gal(b1-4)GlcNAc(b1-3)Gal(b1-4)GlcNAc(b1-6)]Man(a1-6)[GlcNAc(b1-3)Gal(b1-4)GlcNAc(b1-3)Gal(b1-4)GlcNAc(b1-3)Gal(b1-4)GlcNAc(b1-3)Gal(b1-4)GlcNAc(b1-2)Man(a1-3)]Man(b1-4)GlcNAc(b1-4)[Fuc(a1-6)]GlcNAc", "summary_of_the_method": "(§1)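 The Consortium for Functional Glycomics database supplied 3228 glycan arrays, of which those lacking an available protein sequence were dropped. The binding signal, a within-array Z-score, was averaged across arrays of the same protein sequence and across linkers. Negative scores can be read as non-binding.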"}, "[2]": {"target": "GlcNAc(b1-3)Gal(b1-4)GlcNAc(b1-3)Gal(b1-4)GlcNAc(b1-3)GalNAc", "summary_of_the_method": "as §1"}, "[3]": {"target": "GlcNAc(b1-3)Gal(b1-4)GlcNAc(b1-3)GalNAc", "summary_of_the_method": "as §1"}, "[4]": {"target": "GlcNAc(b1-3)Gal(b1-4)GlcNAc(b1-3)[GlcNAc(b1-3)Gal(b1-4)GlcNAc(b1-3)]GalNAc", "summary_of_the_method": "as §1"}, "[5]": {"target": "GlcNAc(b1-3)Gal(b1-4)GlcNAc(b1-6)[Gal(b1-3)]GalNAc", "summary_of_the_method": "as §1"}, "[6]": {"target": "GlcNAc(b1-3)Gal(b1-4)GlcNAc(b1-6)[GlcNAc(b1-3)Gal(b1-3)]GalNAc", "summary_of_the_method": "as §1"}, "[7]": {"target": "GlcNAc(b1-3)Gal(b1-4)GlcNAc(b1-6)[GlcNAc(b1-3)]Gal(b1-4)GlcNAc", "summary_of_the_method": "as §1"}, "GlcNAc(b1-3)GalNAc": {"target": "GlcNAc(b1-3)GalNAc", "summary_of_the_method": "as §1"}, "GlcNAc(b1-3)Man": {"target": "GlcNAc(b1-3)Man", "summary_of_the_method": "as §1"}, "[8]": {"target": "GlcNAc(b1-3)[GlcNAc(b1-4)][GlcNAc(b1-6)]GlcNAc", "summary_of_the_method": "as §1"}, "[9]": {"target": "GlcNAc(b1-3)[GlcNAc(b1-6)]Gal(b1-4)GlcNAc", "summary_of_the_method": "as §1"}, "[10]": {"target": "GlcNAc(b1-3)[GlcNAc(b1-6)]GalNAc", "summary_of_the_method": "as §1"}, "[11]": {"target": "GlcNAc(b1-4)Gal(b1-4)GlcNAc", "summary_of_the_method": "as §1"}, "GlcNAc(b1-4)GlcNAc": {"target": "GlcNAc(b1-4)GlcNAc", "summary_of_the_method": "as §1"}, "[12]": {"target": "GlcNAc(b1-4)GlcNAc(b1-4)GlcNAc", "summary_of_the_method": "as §1"}, "[13]": {"target": "GlcNAc(b1-4)GlcNAc(b1-4)GlcNAc(b1-4)GlcNAc(b1-4)GlcNAc", "summary_of_the_method": "as §1"}, "[14]": {"target": "GlcNAc(b1-4)GlcNAc(b1-4)GlcNAc(b1-4)GlcNAc(b1-4)GlcNAc(b1-4)GlcNAc", "summary_of_the_method": "as §1"}, "[15]": {"target": "GlcNAc(b1-4)[GlcNAc(b1-6)]GalNAc", "summary_of_the_method": "as §1"}, "[16]": {"target": "GlcNAc(b1-6)Gal(b1-4)GlcNAc", "summary_of_the_method": "as §1"}, "GlcNAc(b1-6)GalNAc": {"target": "GlcNAc(b1-6)GalNAc", "summary_of_the_method": "as §1"}, "[17]": {"target": "GlcNAc6S(b1-3)Gal(b1-4)GlcNAc", "summary_of_the_method": "as §1"}, "Kdn(a2-3)Gal(b1-3)GalNAc": {"target": "Kdn(a2-3)Gal(b1-3)GalNAc", "summary_of_the_method": "as §1"}, "Kdn(a2-3)Gal(b1-3)GlcNAc": {"target": "Kdn(a2-3)Gal(b1-3)GlcNAc", "summary_of_the_method": "as §1"}, "Kdn(a2-3)Gal(b1-4)Glc": {"target": "Kdn(a2-3)Gal(b1-4)Glc", "summary_of_the_method": "as §1"}, "Kdn(a2-3)Gal(b1-4)GlcNAc": {"target": "Kdn(a2-3)Gal(b1-4)GlcNAc", "summary_of_the_method": "as §1"}, "[18]": {"target": "Kdn(a2-3)Gal(b1-4)[Fuc(a1-3)]GlcNAc", "summary_of_the_method": "as §1"}, "Kdn(a2-6)Gal(b1-4)GlcNAc": {"target": "Kdn(a2-6)Gal(b1-4)GlcNAc", "summary_of_the_method": "as §1"}, "[19]": {"target": "Man(a1-2)Man(a1-2)Man(a1-3)Man", "summary_of_the_method": "as §1"}, "[20]": {"target": "Man(a1-2)Man(a1-2)Man(a1-6)[Man(a1-3)]Man", "summary_of_the_method": "as §1"}, "Man(a1-2)Man(a1-3)Man": {"target": "Man(a1-2)Man(a1-3)Man", "summary_of_the_method": "as §1"}, "[21]": {"target": "Man(a1-2)Man(a1-3)[Man(a1-2)Man(a1-6)]Man", "summary_of_the_method": "as §1"}, "[22]": {"target": "Man(a1-2)Man(a1-3)[Man(a1-2)Man(a1-6)]Man(a1-6)[Man(a1-2)Man(a1-2)Man(a1-3)]Man", "summary_of_the_method": "as §1"}, "[23]": {"target": "Man(a1-2)Man(a1-3)[Man(a1-2)Man(a1-6)]Man(a1-6)[Man(a1-2)Man(a1-2)Man(a1-3)]Man(b1-4)GlcNAc(b1-4)GlcNAc", "summary_of_the_method": "as §1"}, "[24]": {"target": "Man(a1-2)Man(a1-3)[Man(a1-6)]Man(a1-6)[Man(a1-2)Man(a1-3)]Man(b1-4)GlcNAc(b1-4)GlcNAc", "summary_of_the_method": "as §1"}, "[25]": {"target": "Man(a1-2)Man(a1-6)[Man(a1-3)]Man(a1-6)[Man(a1-2)Man(a1-2)Man(a1-3)]Man", "summary_of_the_method": "as §1"}, "[26]": {"target": "Man(a1-2)Man(a1-6)[Man(a1-3)]Man(a1-6)[Man(a1-2)Man(a1-2)Man(a1-3)]Man(b1-4)GlcNAc(b1-4)GlcNAc", "summary_of_the_method": "as §1"}, "Man(a1-3)[Man(a1-6)]Man": {"target": "Man(a1-3)[Man(a1-6)]Man", "summary_of_the_method": "as §1"}, "[27]": {"target": "Man(a1-3)[Man(a1-6)]Man(a1-6)[Man(a1-2)Man(a1-3)]Man(b1-4)GlcNAc(b1-4)GlcNAc", "summary_of_the_method": "as §1"}, "[28]": {"target": "Man(a1-3)[Man(a1-6)]Man(a1-6)[Man(a1-3)]Man", "summary_of_the_method": "as §1"}, "[29]": {"target": "Man(a1-3)[Man(a1-6)]Man(a1-6)[Man(a1-3)]Man(b1-4)GlcNAc(b1-4)GlcNAc", "summary_of_the_method": "as §1"}, "[30]": {"target": "Man(a1-3)[Man(a1-6)]Man(b1-4)GlcNAc(b1-4)GlcNAc", "summary_of_the_method": "as §1"}, "[31]": {"target": "Man(a1-3)[Man(a1-6)]Man(b1-4)GlcNAc(b1-4)[Fuc(a1-6)]GlcNAc", "summary_of_the_method": "as §1"}, "Man(a1-6)Man": {"target": "Man(a1-6)Man", "summary_of_the_method": "as §1"}, "Man(b1-4)GlcNAc": {"target": "Man(b1-4)GlcNAc", "summary_of_the_method": "as §1"}, "MurNAc(b1-4)GlcNAc": {"target": "MurNAc(b1-4)GlcNAc", "summary_of_the_method": "as §1"}}, "note": "Some of the results follow.", "data": [{"binder": "FGF1 (Homo sapiens), P05230 (protein) MAEGEITTFTALTEKFNLPPGNYKKPKLLYSNGGHFLRILPDGTVDGTRDRSDQHIQLQLSAESVGEVYIKSTETGQYLAMTDGLLYGSQTPNEECLFLERLEENHYNTYISKHAEKNWFVGLKKNGSCKRGPRTHYGQAILFLPLPASSED", "values": [{"measurement": "glycan array binding signal (z-score)", "setting": "[1]", "result": -0.569}, {"measurement": "glycan array binding signal (z-score)", "setting": "[2]", "result": -0.462}, {"measurement": "glycan array binding signal (z-score)", "setting": "[3]", "result": -0.249}, {"measurement": "glycan array binding signal (z-score)", "setting": "[4]", "result": -0.422}, {"measurement": "glycan array binding signal (z-score)", "setting": "[5]", "result": -0.388}, {"measurement": "glycan array binding signal (z-score)", "setting": "[6]", "result": -0.585}, {"measurement": "glycan array binding signal (z-score)", "setting": "[7]", "result": -0.691}, {"measurement": "glycan array binding signal (z-score)", "setting": "GlcNAc(b1-3)GalNAc", "result": -0.34}, {"measurement": "glycan array binding signal (z-score)", "setting": "GlcNAc(b1-3)Man", "result": -0.136}, {"measurement": "glycan array binding signal (z-score)", "setting": "[8]", "result": -0.837}, {"measurement": "glycan array binding signal (z-score)", "setting": "[9]", "result": -0.556}, {"measurement": "glycan array binding signal (z-score)", "setting": "[10]", "result": -0.611}, {"measurement": "glycan array binding signal (z-score)", "setting": "[11]", "result": -0.744}, {"measurement": "glycan array binding signal (z-score)", "setting": "GlcNAc(b1-4)GlcNAc", "result": 0.385}, {"measurement": "glycan array binding signal (z-score)", "setting": "[12]", "result": -0.394}, {"measurement": "glycan array binding signal (z-score)", "setting": "[13]", "result": -0.273}, {"measurement": "glycan array binding signal (z-score)", "setting": "[14]", "result": -0.382}, {"measurement": "glycan array binding signal (z-score)", "setting": "[15]", "result": -0.724}, {"measurement": "glycan array binding signal (z-score)", "setting": "[16]", "result": -0.198}, {"measurement": "glycan array binding signal (z-score)", "setting": "GlcNAc(b1-6)GalNAc", "result": 0.927}, {"measurement": "glycan array binding signal (z-score)", "setting": "[17]", "result": -0.123}, {"measurement": "glycan array binding signal (z-score)", "setting": "Kdn(a2-3)Gal(b1-3)GalNAc", "result": 1.33}, {"measurement": "glycan array binding signal (z-score)", "setting": "Kdn(a2-3)Gal(b1-3)GlcNAc", "result": -0.565}, {"measurement": "glycan array binding signal (z-score)", "setting": "Kdn(a2-3)Gal(b1-4)Glc", "result": 3.53}, {"measurement": "glycan array binding signal (z-score)", "setting": "Kdn(a2-3)Gal(b1-4)GlcNAc", "result": -0.466}, {"measurement": "glycan array binding signal (z-score)", "setting": "[18]", "result": 2.37}, {"measurement": "glycan array binding signal (z-score)", "setting": "Kdn(a2-6)Gal(b1-4)GlcNAc", "result": 0.386}, {"measurement": "glycan array binding signal (z-score)", "setting": "[19]", "result": -0.833}, {"measurement": "glycan array binding signal (z-score)", "setting": "[20]", "result": 0.105}, {"measurement": "glycan array binding signal (z-score)", "setting": "Man(a1-2)Man(a1-3)Man", "result": -0.898}, {"measurement": "glycan array binding signal (z-score)", "setting": "[21]", "result": -0.916}, {"measurement": "glycan array binding signal (z-score)", "setting": "[22]", "result": -0.522}, {"measurement": "glycan array binding signal (z-score)", "setting": "[23]", "result": 0.333}, {"measurement": "glycan array binding signal (z-score)", "setting": "[24]", "result": -0.86}, {"measurement": "glycan array binding signal (z-score)", "setting": "[25]", "result": -0.67}, {"measurement": "glycan array binding signal (z-score)", "setting": "[26]", "result": -0.455}, {"measurement": "glycan array binding signal (z-score)", "setting": "Man(a1-3)[Man(a1-6)]Man", "result": 0.596}, {"measurement": "glycan array binding signal (z-score)", "setting": "[27]", "result": 0.039}, {"measurement": "glycan array binding signal (z-score)", "setting": "[28]", "result": 1.99}, {"measurement": "glycan array binding signal (z-score)", "setting": "[29]", "result": -0.428}, {"measurement": "glycan array binding signal (z-score)", "setting": "[30]", "result": -0.515}, {"measurement": "glycan array binding signal (z-score)", "setting": "[31]", "result": -0.724}, {"measurement": "glycan array binding signal (z-score)", "setting": "Man(a1-6)Man", "result": 0.019}, {"measurement": "glycan array binding signal (z-score)", "setting": "Man(b1-4)GlcNAc", "result": 0.383}, {"measurement": "glycan array binding signal (z-score)", "setting": "MurNAc(b1-4)GlcNAc", "result": -0.042}]}]}
